Consider five compounds from US12120996B2, “Induction method for improving yield and fertility of 2n pollen in Camellia oleifera” (Central South University of Forestry and Technology, priority 2024, dated 2024).

This series relates to Camellia oleifera 'Huaxin' 2n pollen. The series can be described thus: 2n pollen fertility rate (aceto-carmine staining) after precursor application and 45° C. high-temperature treatment of flower branches. Conditions: for K1 (sum of 2n pollen fertility rates at level 1 of the factor): level 1: DMTU 5 mg/L, mannitol 0.1 g/L, ascorbic acid 0.5 mg/L, brassinolide 2.0 mg/L, sucrose 5 g/L; for K2 (sum of 2n pollen fertility rates at level 2 of the factor): level 2: DMTU 10 mg/L, mannitol 0.5 g/L, ascorbic acid 1.0 mg/L, brassinolide 4.0 mg/L, sucrose 10 g/L; for K3 (sum of 2n pollen fertility rates at level 3 of the factor): level 3: DMTU 15 mg/L, mannitol 1.0 g/L, ascorbic acid 1.5 mg/L, brassinolide 6.0 mg/L, sucrose 15 g/L; for K4 (sum of 2n pollen fertility rates at level 4 of the factor): level 4: DMTU 20 mg/L, mannitol 2.0 g/L, ascorbic acid 2.0 mg/L, brassinolide 8.0 mg/L, sucrose 30 g/L; for Range (impact degree of the factor on 2n pollen fertility rate): range analysis of L16(4^5) orthogonal design; for optimal level (concentration) for 2n pollen fertility rate: range analysis of orthogonal design. The series is classed as in vivo. As to the method: After the high-temperature treatment was released, Camellia oleifera grew naturally until anthers were pollinated. Pollen of each treatment was collected, and a temporary smear of the pollen was made by an aceto-carmine staining method and then photographed by an OlympusDP70 optical microscope; and a diameter of pollen in a temporary smear of each treatment was measured by Image J software, and a yield and a fertility rate of 2n pollen were counted.
Pollen stained red by aceto-carmine was counted as fertile pollen, and pollen not stained red by aceto-carmine was counted as infertile pollen (as shown in FIG. 3).
An occurrence frequency of 2n pollen was a ratio of an amount of 2n pollen to a total amount of pollen observed, and a fertility rate of 2n pollen was a ratio of an amount of fertile 2n pollen to a total amount of 2n pollen observed. […] When no high-temperature treatment is applied, an occurrence frequency of 2n pollen is 0.9%, and a fertility rate is 100%. • 2. […] Treatment conditions for 2n pollen in Camellia oleifera in the present disclosure: a leptotene stage to a pachytene stage of pollen mother cells, a style length: less than 2.57 mm, an induction temperature: 43° C. to 49° C., and an induction time: 3 h to 6 h.
Flower branches with a style length developing to 1.97 mm<L≤2.27 mm and pollen mother cells at a leptotene stage to a pachytene stage were selected as target flower branches, and DMTU solutions with different concentrations were applied to the target flower branches, respectively; and a flower branch not treated with a DMTU solution was adopted as a control.
The concentrations of the DMTU solutions were 1 mg/L, 5 mg/L, 10 mg/L, 15 mg/L, 20 mg/L, and 25 mg/L, respectively. Preparation method of a DMTU solution: DMTU was first dissolved with an appropriate amount of alcohol, and then water was added to a required concentration.
The above DMTU solutions with different concentrations each were sprayed on a flower branch, where a DMTU solution was evenly sprayed on a flower branch by a sprayer until there were condensed water droplets flowing down from leaves or flower buds; and each treatment was numbered and recorded (as shown in Table 3).
After each DMTU solution was applied, in order to avoid rapid evaporation of a solution on a leaf surface due to a high-temperature treatment, the whole flower branch was wrapped with a plastic film, and then the non-ex vivo tree branch bud heating device in the authorized patent (patent ZL200610113448.X) was immediately used to apply a 45° C. high-temperature treatment to each target flower branch for 4 h, namely, a high-temperature doubling treatment. A doubling treatment method was the same as the doubling treatment method in step 1.2 of Example 1.
After a high-temperature treatment was conducted for 4 h, a heating bag and a plastic film were removed to release the high-temperature treatment, and Camellia oleifera was allowed to grow naturally until anthers were pollinated. Pollen of each treatment was collected, and a temporary smear of the pollen was made by an aceto-carmine staining method and then photographed by an Olympus DP70 optical microscope; and a diameter of pollen was measured by Image J software, and an occurrence frequency and a fertility rate of 2n pollen were counted.
The above reagents were applied through spraying on a flower branch and injection into a flower bud. The spraying on a flower branch was as follows: a precursor solution was evenly sprayed on the flower branch by a sprayer until there were condensed water droplets flowing down from leaves or flower buds. The injection into a flower bud was as follows: a precursor solution was injected into the flower bud by a 5 mL syringe (0.5×20 mm injection needle) through a scale gap at a top of the flower bud until there were water droplets overflowing a surface of the flower bud. […]

For `O=C1O[C@H]([C@@H](O)CO)C(O)=C1O` [Ascorbic acid, ascorbic acid], the “K1 (sum of 2n pollen fertility rates at level 1 of the factor)” value is given as 321.86, the “K2 (sum of 2n pollen fertility rates at level 2 of the factor)” value was determined as 333.68, the “K3 (sum of 2n pollen fertility rates at level 3 of the factor)” value came to 324.16 and the “K4 (sum of 2n pollen fertility rates at level 4 of the factor)” value is on record as 320.95. In addition, the “Range (impact degree of the factor on 2n pollen fertility rate)” value (“Range” below) was 3.18 and the “optimal level (concentration) for 2n pollen fertility rate” value (shortened to “optimal level (concentration)”) is given as 1.0 mg/L.
In the case of `CC(C)[C@H](C)[C@@H](O)[C@H](O)[C@@H](C)[C@H]1CC[C@H]2[C@@H]3COC(=O)[C@H]4C[C@H](O)[C@H](O)C[C@]4(C)[C@H]3CC[C@]12C` [Brassinolide, brassinolide], the “K1 (sum of 2n pollen fertility rates at level 1 of the factor)” value was 319.50, the “K2 (sum of 2n pollen fertility rates at level 2 of the factor)” value was 331.92, the “K3 (sum of 2n pollen fertility rates at level 3 of the factor)” value is 327.78 and the “K4 (sum of 2n pollen fertility rates at level 4 of the factor)” value was determined as 321.45. Further, the “Range” value was determined as 3.11 and the “optimal level (concentration)” value is listed as 4.0 mg/L.
Regarding `CNC(=S)NC` [DMTU, N,N′-Dimethylthiourea], the “K1 (sum of 2n pollen fertility rates at level 1 of the factor)” value turned out to be 312.90, the “K2 (sum of 2n pollen fertility rates at level 2 of the factor)” value is on record as 350.14, the “K3 (sum of 2n pollen fertility rates at level 3 of the factor)” value came out at 324.48 and the “K4 (sum of 2n pollen fertility rates at level 4 of the factor)” value turned out to be 313.13. The “Range” value was determined as 9.31 and the “optimal level (concentration)” value stood at 10 mg/L.
`OC[C@@H](O)[C@@H](O)[C@H](O)[C@H](O)CO` [Mannitol, mannitol]: the “K1 (sum of 2n pollen fertility rates at level 1 of the factor)” value worked out at 326.57, the “K2 (sum of 2n pollen fertility rates at level 2 of the factor)” value is on record as 331.81, the “K3 (sum of 2n pollen fertility rates at level 3 of the factor)” value worked out at 323.93 and the “K4 (sum of 2n pollen fertility rates at level 4 of the factor)” value is 318.34. The “Range” value was 3.37 and the “optimal level (concentration)” value worked out at 500 mg/L.
For the compound `OC[C@H]1O[C@@](CO)(O[C@H]2O[C@H](CO)[C@@H](O)[C@H](O)[C@H]2O)[C@@H](O)[C@@H]1O` [Sucrose, sucrose], the “K1 (sum of 2n pollen fertility rates at level 1 of the factor)” value amounted to 323.46, the “K2 (sum of 2n pollen fertility rates at level 2 of the factor)” value came to 323.81, the “K3 (sum of 2n pollen fertility rates at level 3 of the factor)” value stood at 331.63 and the “K4 (sum of 2n pollen fertility rates at level 4 of the factor)” value came to 321.75. Besides, the “Range” value was 2.47 and the “optimal level (concentration)” value worked out at 15000 mg/L.
